For at least one compound, name, drawing or mass did not settle the structure.
Tested on: HIV
Experiment: Anti-HIV activity (inhibition of HIV replication, viral protein p24) in CEM-T4 cells
Format: cell-based
Conditions: 50% inhibition of HIV replication, p24 after 8 days
Description: Cytotoxicity and anti-HIV activity of the compounds (XVIa-c) described above were examined in CEM-T4 cells according procedures described below.
Anti HIV activity (EC50 and EC90)—parameter EC50 is defined as concentration of compounds in which replication of HIV is inhibited by 50% and parameter EC90 is defined as concentration of compounds in which replication of HIV is inhibited by 90%. To determine these parameters CEM-T4 cells were preincubated 24 hours in standard conditions (37° C., 5% CO2) in standard medium [RPMI, FCS 10% (v/v)] enriched with tested compounds in concentrations in range 0.001-20 μM. Incubations were performed with 96 flat bottom wells culture plates. In each well 20000 cells were suspended in solution of tested compound (200 μL). For each concentration four cultures were done. As a reference, media containing AZT in concentration 1.25 μM, 2.5 μM, 5.0 μM, 10.0 μM, 20 μM were used. As a positive control of maximal replication of HIV, culture in neat standard medium [RPMI/FCS 10% (v/v)] was used. After 24 hours of incubation in medium enriched with tested compound and AZT, cells were inoculated with known amount of HIV and cultivation was continued 8 days and after this the amount of viral protein p24 (marker of HIV replication) was measured. […]

## Cc1cn([C@H]2C[C@H](N=[N+]=[N-])[C@@H](COP(=O)(O)Nc3ccncc3)O2)c(=O)[nH]c1=O [(XVITc)]
  EC50: 1.1 nM
